Measurements reported in PubChem BioAssay AID1508597 (Cure First, 2020)
Shown is a random part of the about 2,100 reagents, in one setting of the screen. 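Calls flag viability under 80% in either arm, not effects specific to rucaparib; the reference for percent is not stated.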 A number with no mark means an inactive call. A reagent listed more than once was tested more than once; the source does not tell the runs apart. Not given: the 100% reference.

Aim: 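Knock-downs altering ovarian cancer cell survival with or without PARP inhibitor rucaparib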 (primary screen)
System: human ovarian carcinoma lines grown from tumours: OCI-P5x (papillary serous) and OCI-C5x (clear cell)
Reagent: siRNA pool against human genes, 1.25 pmol siRNA per well
Duration: 72 h or 96 h, depending on the cell culture
Challenge: rucaparib 20 µM (about IC30) or vehicle, present until read-out
Rucaparib or vehicle: Rucaparib
Cell line: OCI-C5x (clear cell)
Measured: 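ATP luminescence measured at 72 or 96 h according to the culture, then normalised and expressed as percent viability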
Direction: viability, normalised: higher = more viable cells remaining
Call rule: 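a well counts as a hit if its normalised viability is under 80 percent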
Meaning of the calls: active = viability under 80%; inactive = viability 80% or more

Gene	technical replicate	viability, normalised (%)
SULF2 (sulfatase 2)	1	50.1 (active)
SULF2 (sulfatase 2)	2	55.4 (active)
SULF2 (sulfatase 2)	3	56.3 (active)
NUDT1 (nudix hydrolase 1)	1	62.6 (active)
NUDT1 (nudix hydrolase 1)	2	70.8 (active)
NUDT1 (nudix hydrolase 1)	3	56.9 (active)
EPB41L5 (erythrocyte membrane protein band 4.1 like 5)	1	58.1 (active)
EPB41L5 (erythrocyte membrane protein band 4.1 like 5)	2	48.3 (active)
EPB41L5 (erythrocyte membrane protein band 4.1 like 5)	3	44.4 (active)
TGFBR1 (transforming growth factor beta receptor 1)	1	76.7 (active)
TGFBR1 (transforming growth factor beta receptor 1)	2	60.9 (active)
TGFBR1 (transforming growth factor beta receptor 1)	3	58.4 (active)
TPP1 (tripeptidyl peptidase 1)	1	81.8
TPP1 (tripeptidyl peptidase 1)	2	67 (active)
TPP1 (tripeptidyl peptidase 1)	3	52.9 (active)
DDX60L (DExD/H-box 60 like)	1	71.1 (active)
DDX60L (DExD/H-box 60 like)	2	55.7 (active)
DDX60L (DExD/H-box 60 like)	3	48.7 (active)
EDC4 (enhancer of mRNA decapping 4)	1	57.4 (active)
EDC4 (enhancer of mRNA decapping 4)	2	44.9 (active)
EDC4 (enhancer of mRNA decapping 4)	3	44.5 (active)
TRIM33 (tripartite motif containing 33)	1	71.2 (active)
TRIM33 (tripartite motif containing 33)	1	66.6 (active)
TRIM33 (tripartite motif containing 33)	2	64.4 (active)
TRIM33 (tripartite motif containing 33)	2	45.6 (active)
TRIM33 (tripartite motif containing 33)	3	52.2 (active)
TRIM33 (tripartite motif containing 33)	3	50.1 (active)
MED12 (mediator complex subunit 12)	1	46.2 (active)
MED12 (mediator complex subunit 12)	2	48.6 (active)
MED12 (mediator complex subunit 12)	3	40.4 (active)
NEK7 (NIMA related kinase 7)	1	47.9 (active)
NEK7 (NIMA related kinase 7)	2	44.4 (active)
NEK7 (NIMA related kinase 7)	3	69.5 (active)
CKB (creatine kinase B)	1	54.8 (active)
CKB (creatine kinase B)	2	69.8 (active)
CKB (creatine kinase B)	3	57.6 (active)

Quoted from above, 9 entries:
Gene	technical replicate	viability, normalised (%)
NUDT1 (nudix hydrolase 1)	1	62.6 (active)
NUDT1 (nudix hydrolase 1)	2	70.8 (active)
NUDT1 (nudix hydrolase 1)	3	56.9 (active)
EPB41L5 (erythrocyte membrane protein band 4.1 like 5)	1	58.1 (active)
EPB41L5 (erythrocyte membrane protein band 4.1 like 5)	2	48.3 (active)
EPB41L5 (erythrocyte membrane protein band 4.1 like 5)	3	44.4 (active)
TGFBR1 (transforming growth factor beta receptor 1)	1	76.7 (active)
TGFBR1 (transforming growth factor beta receptor 1)	2	60.9 (active)
TGFBR1 (transforming growth factor beta receptor 1)	3	58.4 (active)

The list goes on:
Gene	technical replicate	viability, normalised (%)
MYOCD (myocardin)	1	40.4 (active)
MYOCD (myocardin)	2	32 (active)
MYOCD (myocardin)	3	36.4 (active)
CAMKV (CaM kinase like vesicle associated)	1	62.5 (active)
CAMKV (CaM kinase like vesicle associated)	2	50.9 (active)
CAMKV (CaM kinase like vesicle associated)	3	53.8 (active)
CCNK (cyclin K)	1	46.2 (active)
CCNK (cyclin K)	2	57.6 (active)
CCNK (cyclin K)	3	45.8 (active)
PIK3CB	1	51.2 (active)
PIK3CB	2	43.8 (active)
PIK3CB	3	64.7 (active)
TWF1 (twinfilin actin binding protein 1)	1	52.4 (active)
TWF1 (twinfilin actin binding protein 1)	2	61.1 (active)
TWF1 (twinfilin actin binding protein 1)	3	52.1 (active)
PIM3 (Pim-3 proto-oncogene, serine/threonine kinase)	1	54.4 (active)
PIM3 (Pim-3 proto-oncogene, serine/threonine kinase)	2	30.8 (active)
PIM3 (Pim-3 proto-oncogene, serine/threonine kinase)	3	47.9 (active)
MSH3 (mutS homolog 3)	1	64.9 (active)
MSH3 (mutS homolog 3)	2	59.8 (active)
MSH3 (mutS homolog 3)	3	76.4 (active)
